Experimental data taken from US20250382261A1 (The Broad Institute, Inc., priority 2021, published 2025).
Some results were stated once for a whole list of compounds, not compound by compound.

Each molecule was assayed on A. baumannii ATCC 17978 (assay: Systemic A. baumannii murine infection model). Conditions: 10 mg/kg analog alone or 50 mg/kg novobiocin alone.
Type: in vivo, mouse
Method: Mouse infection models. Animal experiments were conducted according to guidelines set by the Canadian Council on Animal Care using protocols approved by the Animal Review Ethics Board at McMaster University under Animal Use Protocol #20-12-43. Before infection, mice were relocated at random from a housing cage to treatment or control cages. No animals were excluded from analyses, and blinding was considered unnecessary. Seven- to nine-week-old female C57BL/6 mice (Charles River) were infected intraperitoneally with ˜2×10^6 CFU of A. baumannii ATCC 17978, with 5% porcine mucin (Sigma-Aldrich). Infections were allowed to establish for 2 h, and treatments were administered intraperitoneally. For the survival study, the clinical endpoint was determined using a five-point body condition score analyzing weight loss, decrease in body temperature, respiratory distress, hampered mobility and hunched posture. Experimental endpoint was defined as five days post-infection for mice not reaching clinical endpoint. For CFU/mL enumeration, animals were infected as described above and euthanized 6 h post-infection, and blood was collected into sterile 2 ml heparinized tubes (BD Scientific) serially diluted in PBS and plated onto solid LB. Plates were incubated overnight at 37° C., and colonies were quantified to determine bacterial load.
This was directly compared to the activity of P35 and P36 in this model (all administered at 10 mg/kg) in combination with novobiocin (50 mg/kg).
For this experiment the same A. baumannii infection model was used, however, endpoint was defined as 6 h post-infection, at which point blood was collected for CFU/mL enumeration (FIG. 2b).

Row | Structure (SMILES) | Time to clinical endpoint, treatment alone
1 | CO[C@@H]1[C@@H](OC(N)=O)[C@@H](O)[C@H](Oc2ccc3c(O)c(NC(=O)c4ccc(O)c(CC=C(C)C)c4)c(=O)oc3c2C)OC1(C)C [novobiocin, reference compound] | ≤ 24 h
2 | N=C(N)c1ccc(OCCN(CCOc2ccc(C(=N)N)cc2)Cc2ccccc2)cc1 [Analog P36] | ≤ 24 h
3 | N=C(N)c1ccc(OCCN(CCOc2ccc(C(=N)N)cc2)c2ccccc2)cc1 [Analog P35] | ≤ 24 h
